Test results as given in paper PMC5114558, “Reader domain specificity and lysine demethylase-4 family function” (Nature Communications, 2016).
These are yes or no findings as the source states them, for the method shown.

The chains behind the UniProt entries cited, without tags or fusion partners. Residues count along the entry.
UniProt O94953, residues 917-1031: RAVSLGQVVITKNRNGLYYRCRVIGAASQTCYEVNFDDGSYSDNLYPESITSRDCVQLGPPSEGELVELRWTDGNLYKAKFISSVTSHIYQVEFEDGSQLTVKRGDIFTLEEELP
UniProt Q9H3R0, residues 877-991: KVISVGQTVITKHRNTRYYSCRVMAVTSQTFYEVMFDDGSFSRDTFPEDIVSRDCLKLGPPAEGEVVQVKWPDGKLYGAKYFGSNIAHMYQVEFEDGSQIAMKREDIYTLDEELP

Legend:
[1] = molecular target: KDM4B double tudor domain (KDM4B-DTD), His6 tag cleaved, for crystallization (human) (UniProt O94953); experiment: SEC; size exclusion chromatography, Stokes radius (Supplementary Table 2); both purified
[2] = molecular target: KDM4C double tudor domain (KDM4C-DTD), as used for size exclusion chromatography (human) (UniProt Q9H3R0); experiment: as above

Row | binding [1] | binding [2] | Substance
1 | no binding | – | KDM4B double tudor domain (KDM4B-DTD), His6 tag cleaved, for crystallization (from UniProt O94953 917-1031) (domain or fragment)
2 | – | no binding | KDM4C double tudor domain (KDM4C-DTD), as used for size exclusion chromatography (from UniProt Q9H3R0 877-991) (domain or fragment)
